Reference: PubChem BioAssay AID720505 (Drosophila RNAi Screening Center, 2013)
Screen: 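Genes needed for store-operated calcium entry in fly cells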 (primary screen). Cell system: Drosophila S2R+ cells. Reagents: long dsRNA against Drosophila genes. Challenge: thapsigargin (2 µM) in calcium-free buffer to empty internal stores, then 2 mM calcium added back. Read-out: 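Fluo-4 signal in 384-well plates read on a FLIPR after thapsigargin (2 µM, calcium-free) store depletion and 2 mM calcium add-back; unnormalised mean endpoint per well; screen run twice, selected wells retested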. Scale: calcium signal: higher = more calcium entry after store depletion. Active means: 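Knock-downs counted as hits when calcium entry dropped relative to STIM1 positive and Rho1 negative controls present on each plate; roughly 1500 genes called, with reductions of differing size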. Calls: active = called as lowering calcium entry; inactive = not called.
In all, the deposit lists about 20,000 reagents; below is an unselected part of those with a known target gene and a result. Of all reagents, about 2,100 (10%) got an active call. 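Raw plate signals without normalisation; calls rest on control-based scores that were not deposited; replicate 2 separates called from uncalled poorly.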 No sequences are given here. Not stated in the record: the amount of reagent, the time to read-out.

Depletion of Nup58 (Nucleoporin 58kD) [DRSC16235] resulted in: calcium signal, replicate 1 = 172; calcium signal, replicate 2 = 186; inactive.
Knock-down of Nplp1 (Neuropeptide-like precursor 1) [DRSC04370] came out at: calcium signal, replicate 1 = 99.9; calcium signal, replicate 2 = 90.2; inactive.
Against N (Notch) [DRSC18685] the deposit lists calcium signal, replicate 1 = 95.9; calcium signal, replicate 2 = 118; inactive.
Against CkIIalpha-i1 (CKII-alpha subunit interactor-1) [DRSC11115], the entry reads calcium signal, replicate 1 = 169; calcium signal, replicate 2 = 273; inactive.
For mRpL32 (mitochondrial ribosomal protein L32) [DRSC14479], the values are calcium signal, replicate 1 = 179; calcium signal, replicate 2 = 160; inactive.
Cbp53E (Calbindin 53E) [DRSC07356] showed calcium signal, replicate 1 = 120; calcium signal, replicate 2 = 143; inactive.
Against CG30222 [DRSC04125], the values are calcium signal, replicate 1 = 137; calcium signal, replicate 2 = 82.8; inactive.
With knock-down of CG30222 [DRSC04262], the screen gave calcium signal, replicate 1 = 163; calcium signal, replicate 2 = 90.2; inactive.
Against Rrp4 [DRSC04434], the values are calcium signal, replicate 1 = 71; calcium signal, replicate 2 = 186; active.
After knock-down of CG31207 [DRSC21886], the record shows calcium signal, replicate 1 = 105; calcium signal, replicate 2 = 198; inactive.
Silencing of CG9107 [DRSC03138] came out at: calcium signal, replicate 1 = 87.8; calcium signal, replicate 2 = 193; inactive.
With knock-down of CG10914 [DRSC06010], the screen gave calcium signal, replicate 1 = 129; calcium signal, replicate 2 = 151; inactive.
After knock-down of CG12692 [DRSC17881], the record shows calcium signal, replicate 1 = 172; calcium signal, replicate 2 = 128; inactive.
Knock-down of kon (kon-tiki) [DRSC02033] resulted in: calcium signal, replicate 1 = 78.6; calcium signal, replicate 2 = 110; inactive.
After knock-down of CG4483 [DRSC10426], the record shows calcium signal, replicate 1 = 104; calcium signal, replicate 2 = 115; inactive.
Silencing of CG33309 [DRSC01421] resulted in: calcium signal, replicate 1 = 158; calcium signal, replicate 2 = 94.2; inactive.
rdhB (retinol dehydrogenase B) [DRSC16190] scored calcium signal, replicate 1 = 172; calcium signal, replicate 2 = 141; inactive.
CG4325 [DRSC18516] gave calcium signal, replicate 1 = 82.1; calcium signal, replicate 2 = 112; inactive.
After knock-down of CG4325 [DRSC23171], the record shows calcium signal, replicate 1 = 110; calcium signal, replicate 2 = 104; inactive.
